Data published in PubChem BioAssay AID504834 (National Center for Advancing Translational Sciences (NCATS), 2011).
Values joined by “and” are separate entries in the source; they are usually repeats but may differ in a detail not shown here. Identical values can stand only once. Among all 320,000 compounds or so, about 22,000 (6.9%) were called active. Inconclusive results, whose numbers are uncertain, are shown with a selection of clear calls. Calls follow the shape of the dose curve; as a rule, active = well fitted inhibition curve with a large enough effect; inconclusive = small, poorly fitted or top-dose-only effect, or another doubt; inactive = no such curve, though single readings can be large or run the other way. Potencies beside an inconclusive call are fits to weak or partial responses and may not hold up.

Experiment: Primary qHTS for delayed death inhibitors of the malarial parasite plastid, 96 hour incubation
Conditions: P. falciparum luciferase reporter growth; series mostly up to 28.7 µM; activity change, negative = inhibition: at the top concentration
How it was run: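 Erythrocytes infected with luciferase-expressing P. falciparum were dispensed at 2% hematocrit and 0.05% parasitemia (final), then incubated with compounds 96 hours at 37 C in 5% CO2. Luminescence after detection reagent addition reported growth.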
% is scaled to controls: 0 for no effect and ±100 for the full control effect; potency is read from the fitted curve at half-maximal effect.

SMILES	Potency	activity change, negative = inhibition
COc1ccc(S(=O)(=O)NC(C)(C)C)cc1-c1nnc2c3ccccc3c(C)nn12	inconclusive: 3.29 µM [inhibitor, full curve, poor fit]	–
Cc1ccc(OCCN2CCN(C(=O)CCC(=O)Nc3nnc(C(C)C)s3)CC2)cc1	active: 2.94 µM	–
CC(Oc1cccc(Cl)c1)C(=O)N(C)CC(=O)Nc1ccc(N2CCOCC2)cc1 (stereo not drawn)	–	inactive: 3%
CCc1nc2ccccc2n1CCC(C)C	–	inactive: -14.2%
Cc1cc2nc(C3CCCN(C(=O)NCc4ccccc4)C3)[nH]c2cc1C (stereo not drawn)	–	inactive: 38.1%
Fc1ccc(COc2ccccc2C(=S)N2CCCC2)cc1	–	inactive: -71.8%
O=C(c1ccco1)N1CCN(S(=O)(=O)c2ccc(Cl)cc2)CC1	inconclusive: 0.0657 µM [inhibitor, full curve, poor fit]	–
Cc1ccc(N(C)C(=O)c2ccc3c(Cl)c4c(nc3c2)CCC4)cc1C	inconclusive: 14.7 µM [inhibitor, partial curve, poor fit]	–
C=CCc1cccc(CNc2nc3ccccc3n2C(C)C)c1O	inconclusive: 16.5 µM [inhibitor, partial curve, poor fit]	–
COc1cc(CNCc2ccccn2)ccc1OCc1cccc(Cl)c1	inconclusive: 10.4 µM [inhibitor, single point]	–
OCc1nc2ccccc2n1CC(O)Cn1ccc2ccccc21 (stereo not drawn)	inconclusive: 7.38 µM [inhibitor, single point]	–
CC1CCN(CC(=O)c2ccccc2Cl)CC1	inconclusive: 11.7 µM [inhibitor, single point]	–
COC(=O)C1=C(c2ccc(OC)c(OC)c2)C[C@@H]2CC[C@H]1N2C(=O)NCc1cc(C)oc1C(F)(F)F	inconclusive: 5.86 µM [inhibitor, partial curve]	–
COc1cc(NC(=O)CCn2c(=O)oc3ccccc32)cc(OC)c1OC	inconclusive: 11.7 µM [inhibitor, single point]	–
O=C(OCn1ncc(Br)c(Br)c1=O)c1ccc(F)cc1	inconclusive: 7.38 µM [inhibitor, partial curve, poor fit]	–
C[n+]1c2n(c3ccccc31)N=C(c1ccccc1)CS2	inactive and inconclusive: 18.5 µM [inhibitor, single point]	–
O=C1CC(c2ccc3c(c2)OCO3)c2cc3c(cc2N1)OCO3 (stereo not drawn)	inconclusive: 14.7 µM [inhibitor, single point]	–
Cc1cccc(C(=O)Nc2ccccc2-c2nnn(CC(=O)Nc3ccc4c(c3)OCCO4)n2)c1	inconclusive: 13.1 µM [inhibitor, partial curve, poor fit]	–
